Laboratory results taken from PMC12785156.
Results are given in words; binding and its absence hold for the method and conditions named. For part of these data: In cells and extracts the contact can be indirect. Some entries that bind do so weakly or less than the wild type. Sequences can lack the tags named with a protein.

Experiments:
[1] = biological target: T1, AtHPPD fused to the DNA-binding domain (pGBKT7 bait) (Arabidopsis thaliana) (UniProt P93836); assay: two-hybrid; yeast Y2HGold; AtHPPD in pGBKT7 (bait), PUB11 in pGADT7 (prey); growth and alpha-gal activity on SD/-Trp/-His/-Leu + X-alpha-gal (TDO/X)
T1 sequence: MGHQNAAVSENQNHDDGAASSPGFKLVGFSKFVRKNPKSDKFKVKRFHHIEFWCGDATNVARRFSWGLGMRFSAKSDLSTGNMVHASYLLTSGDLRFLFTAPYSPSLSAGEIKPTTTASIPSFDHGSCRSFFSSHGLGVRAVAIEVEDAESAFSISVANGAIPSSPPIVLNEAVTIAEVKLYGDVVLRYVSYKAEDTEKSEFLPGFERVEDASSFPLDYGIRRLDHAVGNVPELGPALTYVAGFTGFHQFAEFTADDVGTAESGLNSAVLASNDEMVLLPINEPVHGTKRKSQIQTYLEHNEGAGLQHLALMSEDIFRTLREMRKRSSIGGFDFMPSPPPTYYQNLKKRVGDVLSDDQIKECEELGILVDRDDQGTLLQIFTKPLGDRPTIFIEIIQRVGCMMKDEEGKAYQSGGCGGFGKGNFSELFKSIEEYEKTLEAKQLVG

[2] = biological target: T2, MBP-PUB11-U-box (Arabidopsis thaliana) (UniProt Q8GUG9); assay: pull-down; purified MBP-PUB11 full length or truncated variants (or MBP alone) with purified His-AtHPPD, 4°C; immunoblot with anti-His and anti-MBP; both purified
T2 sequence: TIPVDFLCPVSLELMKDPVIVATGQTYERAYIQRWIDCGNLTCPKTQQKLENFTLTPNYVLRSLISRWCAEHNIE

[3] = biological target: T3, AtHPPD-nYFP (Arabidopsis thaliana) (UniProt P93836); assay: split reporter; BiFC: PUB11-cYFP and AtHPPD-nYFP co-infiltrated in N. benthamiana leaf epidermal cells; confocal microscopy after 2-3 days; signal in the nucleus
T3 sequence: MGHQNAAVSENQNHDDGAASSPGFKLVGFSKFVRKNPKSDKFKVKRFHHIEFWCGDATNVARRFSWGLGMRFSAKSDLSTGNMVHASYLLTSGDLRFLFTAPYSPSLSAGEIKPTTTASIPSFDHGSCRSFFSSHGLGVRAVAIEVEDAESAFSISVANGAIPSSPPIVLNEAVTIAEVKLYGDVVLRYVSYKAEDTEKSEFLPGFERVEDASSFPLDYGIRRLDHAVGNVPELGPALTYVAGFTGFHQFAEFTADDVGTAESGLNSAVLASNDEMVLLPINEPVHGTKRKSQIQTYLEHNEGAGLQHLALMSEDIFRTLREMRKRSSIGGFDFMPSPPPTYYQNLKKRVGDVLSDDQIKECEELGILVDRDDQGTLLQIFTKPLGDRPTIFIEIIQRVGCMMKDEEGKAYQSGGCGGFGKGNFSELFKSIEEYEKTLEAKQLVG

B1: full-length PUB11 fused to the activation domain (pGADT7 prey) (enzyme, UniProt Q8GUG9 1-612)
chain: MAGGIVSPASLLDLIADIVEIPLNTGMFKKDCADLTRRVCLLTHLLEEIRDSTPIDSAASSSSENDWWSDLVVGLQAAKRLLSTARFQARDSSDGAAKRISFQFQCVTWKLEKALSNLPYDLYDISDEVGEQVELARSQLRRAMQRYGSLNSNKFSSALSEPMERDGFSNVIKIKAEEKLESVSETLHFGEEEEKQSSPPLRRSSSISLAYYLSKDADTDRLDKMVNKNTDESKKSDKLTIPVDFLCPVSLELMKDPVIVATGQTYERAYIQRWIDCGNLTCPKTQQKLENFTLTPNYVLRSLISRWCAEHNIEQPAGYINGRTKNSGDMSVIRALVQRLSSRSTEDRRNAVSEIRSLSKRSTDNRILIAEAGAIPVLVNLLTSEDVATQENAITCVLNLSIYENNKELIMFAGAVTSIVQVLRAGTMEARENAAATLFSLSLADENKIIIGGSGAIPALVDLLENGTPRGKKDAATALFNLCIYHGNKGRAVRAGIVTALVKMLSDSTRHRMVDEALTILSVLANNQDAKSAIVKANTLPALIGILQTDQTRNRENAAAILLSLCKRDTEKLITIGRLGAVVPLMDLSKNGTERGKRKAISLLELLRKACQ
binding [1]: binds

B2: His-AtHPPD (Arabidopsis thaliana 4-hydroxyphenylpyruvate dioxygenase) (enzyme, UniProt P93836 1-445)
chain: MGHQNAAVSENQNHDDGAASSPGFKLVGFSKFVRKNPKSDKFKVKRFHHIEFWCGDATNVARRFSWGLGMRFSAKSDLSTGNMVHASYLLTSGDLRFLFTAPYSPSLSAGEIKPTTTASIPSFDHGSCRSFFSSHGLGVRAVAIEVEDAESAFSISVANGAIPSSPPIVLNEAVTIAEVKLYGDVVLRYVSYKAEDTEKSEFLPGFERVEDASSFPLDYGIRRLDHAVGNVPELGPALTYVAGFTGFHQFAEFTADDVGTAESGLNSAVLASNDEMVLLPINEPVHGTKRKSQIQTYLEHNEGAGLQHLALMSEDIFRTLREMRKRSSIGGFDFMPSPPPTYYQNLKKRVGDVLSDDQIKECEELGILVDRDDQGTLLQIFTKPLGDRPTIFIEIIQRVGCMMKDEEGKAYQSGGCGGFGKGNFSELFKSIEEYEKTLEAKQLVG
binding [2]: binds

B3: PUB11-cYFP (enzyme, UniProt Q8GUG9 1-612)
chain: MAGGIVSPASLLDLIADIVEIPLNTGMFKKDCADLTRRVCLLTHLLEEIRDSTPIDSAASSSSENDWWSDLVVGLQAAKRLLSTARFQARDSSDGAAKRISFQFQCVTWKLEKALSNLPYDLYDISDEVGEQVELARSQLRRAMQRYGSLNSNKFSSALSEPMERDGFSNVIKIKAEEKLESVSETLHFGEEEEKQSSPPLRRSSSISLAYYLSKDADTDRLDKMVNKNTDESKKSDKLTIPVDFLCPVSLELMKDPVIVATGQTYERAYIQRWIDCGNLTCPKTQQKLENFTLTPNYVLRSLISRWCAEHNIEQPAGYINGRTKNSGDMSVIRALVQRLSSRSTEDRRNAVSEIRSLSKRSTDNRILIAEAGAIPVLVNLLTSEDVATQENAITCVLNLSIYENNKELIMFAGAVTSIVQVLRAGTMEARENAAATLFSLSLADENKIIIGGSGAIPALVDLLENGTPRGKKDAATALFNLCIYHGNKGRAVRAGIVTALVKMLSDSTRHRMVDEALTILSVLANNQDAKSAIVKANTLPALIGILQTDQTRNRENAAAILLSLCKRDTEKLITIGRLGAVVPLMDLSKNGTERGKRKAISLLELLRKACQ
binding [3]: binds
